Data from paper doi:10.1101/102442.
No constants are given. Whether binding was seen depends on the method and setting. In cells and extracts the contact can be indirect. A result given as binding can be weak or reduced; the word gives no strength. Tags and fused reporters may be left off the sequences shown.

Target: mCherry-tagged mL1-ORF1p (mouse)
Assay: co-IP

B1: TEX19.1-YFP (HEK293 / HEK293T cells) (protein, UniProt Q99MV2 1-351)
chain: MCPPVSVRHGARGMSCLYEAWLYHLVHGEQTKICFACFKAAFLLNKLYLEMGDWQEEEEEEEEEDADLLEYLSESESESEQEPGPEQDAWRGLGSLYVPQSVSEGSGVLLPTPVWTQGILFSIFVPTELFPQEAVPLDLGPEDAEWTQALPWRLDGLFPCSHQLIPPLTWWDIFDVMPSPGQPVLLELRCHWPLDQTVAQSWLQDQKFVLLLDSVQSRCHLLSMRVRWVVRTQVQHWQVLLDPGEMWVAHFRKEVGQHGLYHQSLNPWRLSILTASELGMELLPATCYLWNKGFWVGSFLPWHINMPETWSWEPGERLFITDATICGTDYHLAQSFLDSHPTPHPLLTLTP
B1 was tested, and the binding was “binds weakly”.
